# Where a chain is given by its changes, count along the chain named. No constants are given. Whether binding was seen depends on the method and setting. Some binding calls cover weakened binding; strength is not graded here.
# Protein sequences, listed by entry. Tags and fused reporters are not part of them. Lines headed by an entry give the natural chain unless they say otherwise; changes in a name come on top. Chains listed by the source or under a name are the forms on record and can include a tag or linker. Residues count along the entry.
# UniProt Q9NR61: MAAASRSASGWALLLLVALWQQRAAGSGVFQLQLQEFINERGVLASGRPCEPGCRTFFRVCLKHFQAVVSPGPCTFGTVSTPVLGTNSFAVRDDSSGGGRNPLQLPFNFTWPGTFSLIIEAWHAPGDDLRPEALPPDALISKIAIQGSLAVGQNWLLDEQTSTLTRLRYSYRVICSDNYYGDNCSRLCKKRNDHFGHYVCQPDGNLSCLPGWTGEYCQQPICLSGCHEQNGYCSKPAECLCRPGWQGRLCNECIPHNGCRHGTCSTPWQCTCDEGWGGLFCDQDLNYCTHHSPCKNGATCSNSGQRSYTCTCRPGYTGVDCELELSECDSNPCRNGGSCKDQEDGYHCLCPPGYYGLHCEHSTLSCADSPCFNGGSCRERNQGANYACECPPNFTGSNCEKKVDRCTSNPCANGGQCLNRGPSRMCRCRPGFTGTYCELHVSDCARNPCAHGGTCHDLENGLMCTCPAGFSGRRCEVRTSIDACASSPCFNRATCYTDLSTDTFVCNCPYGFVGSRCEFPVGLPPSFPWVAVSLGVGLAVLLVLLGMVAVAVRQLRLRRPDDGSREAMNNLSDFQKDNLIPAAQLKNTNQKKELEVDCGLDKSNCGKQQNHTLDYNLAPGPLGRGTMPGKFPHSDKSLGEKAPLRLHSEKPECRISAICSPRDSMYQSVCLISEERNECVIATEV
# UniProt Q9JI71: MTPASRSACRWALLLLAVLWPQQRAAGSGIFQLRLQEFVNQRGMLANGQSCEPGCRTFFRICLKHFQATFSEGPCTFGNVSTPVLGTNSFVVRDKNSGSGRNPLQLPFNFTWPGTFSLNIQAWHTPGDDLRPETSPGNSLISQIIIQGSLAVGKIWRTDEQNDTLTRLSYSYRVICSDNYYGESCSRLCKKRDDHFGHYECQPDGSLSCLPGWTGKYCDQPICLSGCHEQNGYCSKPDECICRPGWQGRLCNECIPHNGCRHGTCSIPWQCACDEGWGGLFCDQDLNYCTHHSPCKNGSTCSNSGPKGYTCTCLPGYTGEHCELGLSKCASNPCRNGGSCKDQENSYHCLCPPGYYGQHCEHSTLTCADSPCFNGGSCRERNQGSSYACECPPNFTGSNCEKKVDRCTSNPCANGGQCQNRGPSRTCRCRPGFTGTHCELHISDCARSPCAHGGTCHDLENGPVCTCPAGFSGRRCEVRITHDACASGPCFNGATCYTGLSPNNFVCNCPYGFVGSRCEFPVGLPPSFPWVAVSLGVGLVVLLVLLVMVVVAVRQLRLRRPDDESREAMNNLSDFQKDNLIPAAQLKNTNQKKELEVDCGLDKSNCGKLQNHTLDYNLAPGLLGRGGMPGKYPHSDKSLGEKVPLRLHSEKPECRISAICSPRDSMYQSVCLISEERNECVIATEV
# mouse DLL4, full length, overexpressed on CHO or HEK293 cells: residues 27-686 of Q9JI71
# recombinant mouse DLL4 extracellular domain, C-terminally His-tagged (R&D Systems): residues 27-525 of Q9JI71
# B1: DLLBII8C11 (VHH, not shown: small tags and cut ends)
# VHH: EVQLVESGGGLVQAGGSLRLSCAASGFTFDDYAIGWFRQAPGKEREGVSCISSHDRTTYYADSVKGRFTISSDNAKNTVYLQMNSLKPEDTAVYYCAADPLVCGYNDPRLADYWGQGTQVTVSS
# B2: DLLBII129D08 (VHH, not shown: small tags and cut ends)
# VHH: EVQLVESGGGLVQAGGSLRLSCAASGRTFSSYAMAWYRQAPGKEREYVAAIRWSGGTAYYADSVQGRFTISRDNAKNTVYLQMNSLKPEDTAVYYCANRAPDTRLEPYLYDYWGQGTQVTVSS
# B3: DLLBII129E11 (VHH, not shown: small tags and cut ends)
# VHH: B2 VHH with E106R
# B4: DLLBII115A05 (VHH, not shown: small tags and cut ends)
# VHH: EVQLVESGGGLVQPGGSLRLSCAASGFTFGSYDMSWVRRSPGKGPEWVSSINSGGGSTYYADFVKGRFTISRDNAKNTLYLQMNSLKPEDTAVYYCAADRYIRARQGDYWGAYEYDYWGQGTQVTVSS
# B5: DLLBII133A09 (VHH, not shown: small tags and cut ends)
# VHH: B4 VHH with S50A, F63Y, R103W, D108E, E114A
# B6: DLLBII133G05 (VHH, not shown: small tags and cut ends)
# VHH: B4 VHH with S50A, A61T, F63Y, R103W, D108E, E114A
# B7: DLLBII136C07 (VHH, not shown: small tags and cut ends)
# VHH: B4 VHH with F63Y, R103W, D108E
# B8: DLLBII015 (VHH, not shown: small tags and cut ends)
# VHH: B4 VHH with F29I, S50A, F63Y, R103W, D108E, E114A
# B9: DLLBII58A11 (VHH, not shown: small tags and cut ends)
# VHH: EVQLVESGGGLVQAGGSLRLSCTTSERTVSRYSMGWFRQAPGKEREAVATISWSGDSTYYADSVKGRFTISRDNTKNTLYLQIDSLKPEDTAVYYCVAKPNLKYGSYWPPRGYDYWGQGTQVTVSS
# B10: DLLBII61F05 (VHH, not shown: small tags and cut ends)
# VHH: EVQLVESGGGLVQPGGSLRLSCTASGFTFSSYAMSWVRQAPGKGLEWVSFINKDGSDTGYADSVKGRFTISRDNAKNTMYLQMNSLKPEDTAVYFCETRTSRSPRPRGQGTQVTVSS
# B11: DLLBII61F07 (VHH, not shown: small tags and cut ends)
# VHH: EVQLVESGGGLVQAGGSLRLSCAASGRTFSRYAMGWFRQAPGKEREFVAAINWSGGSTYYADSVKGRFTISRDNAKNTVYLQMNSLKPEDTAVYDCAASNYYSVYDDRPVMDYWGQGTQVTVSS
# B12: DLLBII19F04 (VHH, not shown: small tags and cut ends)
# VHH: EVQLVESGGGLVQAEGSLRLSCAASGSTFSTYAMAWYRQAPGKQRELVAGISFDGSTHYAESVKGRFTISRDDAKNTVSLQMNSLKPEDAAVYYCYSVHPSTGFGSWGQGTQVTVSS
# B13: 83G04 (VHH)
# VHH: EVQLVESGGGLVKPGGSLRLSCAASGRTLYIMGWYRQAPGKEREFVAGISRYGDITYAADSVKGRFTISRDSVKNTVYLRMNSLKPDDTAVYYCAANGGYCSGYGCYEDSGQYDYWGQGTQVTVSS
# B14: DLLBII107C03 (VHH, not shown: small tags and cut ends)
# VHH: EVQLVESGGGLVQPGGSLRLSCEVSGSIGSVSDMRWYRQAPGLQYELVARITSGSITDYSDSVKGRFTISRDNAKNTVYLQMNSLKPEDTAVYYCNADVQHSAWLKPLTYWGQGTQVTVSS
# B15: DLLBII95F02 (VHH, not shown: small tags and cut ends)
# VHH: EVQLVESGGGSVQAGGSLRLSCAASGRTFSSYAMGWFRQAPGKEREFVAAINWSGGYTYYADSVRGRFTISRDNAKNTVYLQMNSLKPEDTAVYYCAAPAPGSSGYEYDYWGQGTQVTVSS
# B16: DLLBII102G04 (VHH, not shown: small tags and cut ends)
# VHH: EVQLMESGGGLVQPGGSLRLSCAASGFTFSSYAMSWVRQAPGKGLEWVSRITSGGRTTYRDSVKGRFTISRDNSKNTLYLQMNSLKPEDTALYYCAKARGDIDVYTLSDSRGQGTQVTVSS
# B17: DLLBII101G08 (VHH, not shown: small tags and cut ends)
# VHH: B2 VHH with Y37F, Y47F, P101A, E106G, L109E
# B18: DLLBII6B11 (VHH, not shown: small tags and cut ends)
# VHH: EVQLVESEGGLVQAGGSLRLSCAASGSTFSSYAMGWYRQAPGKQRELVAVISNGGITNYPNSVKGRFTISRDNAKNTVYLQMNSLKPEDTAVYYCFYSGSYYYPTDVHEYDYWGQGTQVTVSS
# B19: DLLBII104G01 (VHH, not shown: small tags and cut ends)
# VHH: EVQLVESGGGLVQAGGSLRLSCAASGFTFDDYAIGWFRQAPGKEREGVSCISSSDGSTYYADSVKGRFTISSDNAKNTVYLQMNSLKPEDTAVYYCATAWCDSSWYRSFVGYWGQGTQVTVSS
# Legend:
# [1] = target: recombinant human DLL4 extracellular domain, C-terminally His-tagged (R&D Systems) (human) (UniProt Q9NR61); test: AlphaScreen competition: biotinylated hDLL4 (donor beads) / hNotch1-Fc (acceptor beads)
# [2] = target: recombinant human DLL4 extracellular domain, C-terminally His-tagged (R&D Systems) (human) (UniProt Q9NR61); test: binding ELISA on coated rhDLL4
# [3] = target: mouse DLL4, full length, overexpressed on CHO or HEK293 cells (mouse) (UniProt Q9JI71); test: FACS titration on cells overexpressing mouse DLL4, MCF
# [4] = target: cynomolgus DLL4, full length, overexpressed on cells (cynomolgus); test: FACS titration on cells overexpressing cynomolgus DLL4, MCF
# [5] = target: recombinant mouse DLL4 extracellular domain, C-terminally His-tagged (R&D Systems) (mouse) (UniProt Q9JI71); test: binding ELISA on coated rmDLL4
# [6] = target: cynomolgus DLL4, full length, overexpressed on cells (cynomolgus); test: characterisation of Example 7 (FACS on cells)
# [7] = target: mouse DLL4, full length, overexpressed on CHO or HEK293 cells (mouse) (UniProt Q9JI71); test: characterisation of Example 7 (FACS on cells)
# [8] = target: human DLL4, full length, overexpressed on CHO or HEK293 cells (human) (UniProt Q9NR61); test: FACS titration on cells overexpressing human DLL4, MCF
# [9] = target: mouse DLL4, full length, overexpressed on CHO or HEK293 cells (mouse) (UniProt Q9JI71); test: FMAT competition: labelled hNotch1-Fc on CHO-mDLL4 cells
# [10] = target: human DLL4, full length, overexpressed on CHO or HEK293 cells (human) (UniProt Q9NR61); test: FMAT competition: labelled hNotch1-Fc on CHO-hDLL4 cells
# [11] = target: recombinant human DLL4 extracellular domain, C-terminally His-tagged (R&D Systems) (human) (UniProt Q9NR61); test: SPR binning, hDLL4 captured by immobilized Fab, VHH at 100 nM
binding [1],binding [2],also measured,Binder
binds,–,–,B1
–,binds,–,B2
–,binds,–,B3
–,binds,–,B4
–,binds,–,B5
–,binds,–,B6
–,binds,–,B7
–,binds,binding [3]: binds; binding [4]: binds; binding [5]: binds; binding [6]: binds; binding [7]: binds; binding [8]: binds,B8
–,–,binding [9]: binds,B9
binds,–,binding [9]: binds,B10
binds,–,binding [9]: binds,B11
binds,–,–,B12
binds,–,binding [9]: binds; binding [10]: binds,B13
–,–,binding [9]: binds,B14
binds,–,–,B15
binds,–,–,B16
–,binds,–,B17
–,–,binding [11]: binds,B18
–,–,binding [11]: binds,B19
